According to PMC2394298:

Tested on: NF-kB p50 (heterodimer subunit) + NF-kB p65 (RelA)
Assay: EMSA supershift
Details: NS-398-treated (50 uM, 96 h) HT-29 nuclear extract, absent in untreated control; 1 mM MgCl2, 1 mM KCl, 7.5% Ficoll, 8.5 mM HEPES (pH not given), 1 mM DTT, 1 mg/ml BSA, 1-4 ug poly(dI-dC), 1-4 ug nuclear extract, 20 ul, room temperature; protein in an extract; label: 32P 5' end label

## AGTTGAGGGGACTTTCCCAGGC (double strand) [NF-kB consensus oligonucleotide (Promega)]
  binding result: binds

The exact form of at least one protein or probe is not confirmed. Results from cells or extracts need not show a direct contact.
